# PubChem BioAssay AID1259254, NCATS, 2017
# Aim: 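Finding genes that stop cells copying their DNA twice in one cycle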 (primary screen)
# Cell system: human HCT116 colorectal cancer cells
# Reagents: single siRNA against human genes
# Time to read-out: 3 days
# Detection: 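Nuclei stained with Hoechst and imaged; cell-cycle phase assigned by DNA content; G2 share scaled per plate, non-targeting siRNA 0%, GMNN siRNA 100%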
# Direction: G2 robust z-score and G2 cells, % of GMNN control: higher = more G2 cells, more excess DNA replication
# Rule for the call: 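An siRNA counts as active if its G2 robust z-score lies at least 5 MADs above the screen median; here such calls match roughly 38% of GMNN control or more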
# Here is one part, drawn at random, of about 59,000 deposited reagents. Of all reagents, about 1,550 (2.6%) got an active call. 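G2 share is only a proxy for re-replication; each gene was hit by three separate siRNAs, and active genes were retested.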 Further read-outs or replicates are left out here. The record does not give: the amount of reagent.
The first 3 entries as a preview:
gene,PubChem SID,G2 robust z-score,"G2 cells, % of GMNN control",activity call
EEF1A1P15,SID160768921,0.973,9.81,inactive
EEF1A1P15,SID160768922,-0.432,-0.0735,inactive
EEF1A1P15,SID160768923,0.229,4.58,inactive

Results, from the first entry:
gene,PubChem SID,G2 robust z-score,"G2 cells, % of GMNN control",activity call
EEF1A1P15,SID160768921,0.973,9.81,inactive
EEF1A1P15,SID160768922,-0.432,-0.0735,inactive
EEF1A1P15,SID160768923,0.229,4.58,inactive
HAUS4,SID160742520,-0.193,1.61,inactive
HAUS4,SID160742522,1.15,11.1,inactive
HAUS4,SID160742523,3.03,24.3,inactive
GUSB,SID160776129,1.12,10.8,inactive
GUSB,SID160776140,-0.0964,2.29,inactive
GUSB,SID160776151,-0.999,-4.06,inactive
DDHD1,SID160750590,-0.242,1.27,inactive
DDHD1,SID160750591,-0.756,-2.35,inactive
DDHD1,SID160750592,-0.467,-0.316,inactive
OR4F3,SID160738138,1.53,13.7,inactive
OR4F3,SID160738139,1.09,10.6,inactive
OR4F3,SID160738140,-0.23,1.35,inactive
NPIPB1P,SID160727113,5.29,40.2,active
NPIPB1P,SID160727115,0.395,5.75,inactive
NPIPB1P,SID160772945,-0.0777,2.42,inactive
ALDH2,SID160716261,-0.0865,2.36,inactive
ALDH2,SID160716273,-0.775,-2.49,inactive
ALDH2,SID160716282,0.272,4.88,inactive
SAR1A,SID160745147,-1.05,-4.42,inactive
SAR1A,SID160745148,2.6,21.2,inactive
SAR1A,SID160745149,-0.214,1.46,inactive
ARMC1,SID160743082,-0.257,1.16,inactive
ARMC1,SID160743083,2.11,17.8,inactive
ARMC1,SID160743084,1.63,14.4,inactive
ULK4P3,SID160724667,1.62,14.3,inactive
ULK4P3,SID160724668,2.93,23.6,inactive
ULK4P3,SID160735157,0.633,7.42,inactive
